Assay results reported in the supplement of paper PMC10849652.
The other results are listed elsewhere or left out.

Amino acid sequences for entries named in this document (tags omitted). A change or cut given only in a name is not applied to a line headed by its entry.
UniProt Q15393: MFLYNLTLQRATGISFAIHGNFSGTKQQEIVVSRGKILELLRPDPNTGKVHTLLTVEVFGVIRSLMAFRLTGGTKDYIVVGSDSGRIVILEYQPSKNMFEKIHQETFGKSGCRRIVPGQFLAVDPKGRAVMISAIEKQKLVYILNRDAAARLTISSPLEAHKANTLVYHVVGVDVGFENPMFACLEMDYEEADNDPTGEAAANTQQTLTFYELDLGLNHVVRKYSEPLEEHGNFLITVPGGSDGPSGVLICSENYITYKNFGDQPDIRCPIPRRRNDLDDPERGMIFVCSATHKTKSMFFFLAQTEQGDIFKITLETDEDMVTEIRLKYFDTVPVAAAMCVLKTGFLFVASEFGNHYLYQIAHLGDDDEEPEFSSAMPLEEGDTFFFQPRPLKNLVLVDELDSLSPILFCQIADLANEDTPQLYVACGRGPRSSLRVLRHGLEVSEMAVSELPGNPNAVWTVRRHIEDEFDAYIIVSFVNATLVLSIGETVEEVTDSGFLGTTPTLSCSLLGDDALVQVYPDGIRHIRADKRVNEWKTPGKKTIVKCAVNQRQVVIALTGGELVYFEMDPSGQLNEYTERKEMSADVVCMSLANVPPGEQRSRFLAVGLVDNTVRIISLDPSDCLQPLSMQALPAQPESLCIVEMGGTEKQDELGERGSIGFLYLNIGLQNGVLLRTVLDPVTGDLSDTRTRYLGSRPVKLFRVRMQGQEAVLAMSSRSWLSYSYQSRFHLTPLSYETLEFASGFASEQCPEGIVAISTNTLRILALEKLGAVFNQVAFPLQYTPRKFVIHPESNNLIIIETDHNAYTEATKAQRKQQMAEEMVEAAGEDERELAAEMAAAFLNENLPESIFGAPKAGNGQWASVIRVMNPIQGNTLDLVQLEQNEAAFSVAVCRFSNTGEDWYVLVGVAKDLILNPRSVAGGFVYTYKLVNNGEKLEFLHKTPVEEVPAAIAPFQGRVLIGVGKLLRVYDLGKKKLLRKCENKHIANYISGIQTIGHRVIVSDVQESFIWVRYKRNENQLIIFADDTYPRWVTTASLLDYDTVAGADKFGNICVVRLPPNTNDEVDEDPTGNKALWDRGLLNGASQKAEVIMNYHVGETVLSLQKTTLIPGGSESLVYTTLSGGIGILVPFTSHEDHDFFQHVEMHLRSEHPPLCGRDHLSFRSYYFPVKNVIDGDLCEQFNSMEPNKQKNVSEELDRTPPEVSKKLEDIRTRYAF
UniProt P63208, whole entry, looked up: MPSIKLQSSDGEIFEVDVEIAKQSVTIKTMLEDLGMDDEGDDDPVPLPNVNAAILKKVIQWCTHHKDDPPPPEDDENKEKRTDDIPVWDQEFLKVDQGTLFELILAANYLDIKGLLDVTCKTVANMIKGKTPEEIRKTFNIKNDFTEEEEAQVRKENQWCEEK
UniProt P84101: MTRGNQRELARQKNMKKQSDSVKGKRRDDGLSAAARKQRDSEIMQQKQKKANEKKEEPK
UniProt Q9P0V9: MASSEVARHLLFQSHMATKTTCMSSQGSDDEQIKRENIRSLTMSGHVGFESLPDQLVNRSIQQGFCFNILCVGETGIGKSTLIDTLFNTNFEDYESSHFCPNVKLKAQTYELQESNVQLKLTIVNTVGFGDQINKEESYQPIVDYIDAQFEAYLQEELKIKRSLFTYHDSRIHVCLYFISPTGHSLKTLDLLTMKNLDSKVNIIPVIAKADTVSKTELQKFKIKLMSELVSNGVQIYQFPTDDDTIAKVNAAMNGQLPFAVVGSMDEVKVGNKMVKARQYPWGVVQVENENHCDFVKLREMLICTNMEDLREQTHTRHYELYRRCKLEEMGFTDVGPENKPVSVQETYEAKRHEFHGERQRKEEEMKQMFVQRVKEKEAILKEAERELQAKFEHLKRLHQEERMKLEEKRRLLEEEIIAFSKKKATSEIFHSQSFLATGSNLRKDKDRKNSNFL
UniProt P50453: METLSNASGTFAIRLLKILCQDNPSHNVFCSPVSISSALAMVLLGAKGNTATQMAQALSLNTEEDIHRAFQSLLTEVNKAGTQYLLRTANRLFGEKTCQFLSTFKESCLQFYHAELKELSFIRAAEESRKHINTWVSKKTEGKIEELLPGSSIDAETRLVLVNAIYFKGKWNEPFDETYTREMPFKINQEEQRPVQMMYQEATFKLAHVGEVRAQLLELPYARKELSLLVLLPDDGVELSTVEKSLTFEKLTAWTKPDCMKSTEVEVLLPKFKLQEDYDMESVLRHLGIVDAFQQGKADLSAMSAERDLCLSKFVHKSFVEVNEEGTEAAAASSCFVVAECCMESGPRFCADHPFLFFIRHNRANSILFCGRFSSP
UniProt Q15464: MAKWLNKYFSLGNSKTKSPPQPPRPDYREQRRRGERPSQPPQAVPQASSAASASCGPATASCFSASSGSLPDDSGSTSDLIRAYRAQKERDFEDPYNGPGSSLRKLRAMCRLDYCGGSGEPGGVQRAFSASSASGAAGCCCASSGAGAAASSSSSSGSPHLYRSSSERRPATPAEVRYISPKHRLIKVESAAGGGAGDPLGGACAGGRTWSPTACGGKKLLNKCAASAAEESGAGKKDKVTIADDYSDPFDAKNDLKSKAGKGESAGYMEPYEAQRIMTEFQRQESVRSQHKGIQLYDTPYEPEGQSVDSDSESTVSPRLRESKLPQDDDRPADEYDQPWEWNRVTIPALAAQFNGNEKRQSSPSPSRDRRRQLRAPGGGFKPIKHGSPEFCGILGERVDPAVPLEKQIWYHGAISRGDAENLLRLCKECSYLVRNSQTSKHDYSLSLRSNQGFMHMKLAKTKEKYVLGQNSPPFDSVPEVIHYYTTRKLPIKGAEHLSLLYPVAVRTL
UniProt Q8IUQ4: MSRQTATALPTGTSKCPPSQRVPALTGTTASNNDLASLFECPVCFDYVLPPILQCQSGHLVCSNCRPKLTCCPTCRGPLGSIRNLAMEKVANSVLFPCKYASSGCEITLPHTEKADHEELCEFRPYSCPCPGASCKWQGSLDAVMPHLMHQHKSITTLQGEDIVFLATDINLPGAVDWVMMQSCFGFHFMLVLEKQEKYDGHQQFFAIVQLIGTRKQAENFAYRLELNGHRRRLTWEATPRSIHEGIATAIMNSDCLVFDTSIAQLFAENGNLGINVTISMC
UniProt Q12872: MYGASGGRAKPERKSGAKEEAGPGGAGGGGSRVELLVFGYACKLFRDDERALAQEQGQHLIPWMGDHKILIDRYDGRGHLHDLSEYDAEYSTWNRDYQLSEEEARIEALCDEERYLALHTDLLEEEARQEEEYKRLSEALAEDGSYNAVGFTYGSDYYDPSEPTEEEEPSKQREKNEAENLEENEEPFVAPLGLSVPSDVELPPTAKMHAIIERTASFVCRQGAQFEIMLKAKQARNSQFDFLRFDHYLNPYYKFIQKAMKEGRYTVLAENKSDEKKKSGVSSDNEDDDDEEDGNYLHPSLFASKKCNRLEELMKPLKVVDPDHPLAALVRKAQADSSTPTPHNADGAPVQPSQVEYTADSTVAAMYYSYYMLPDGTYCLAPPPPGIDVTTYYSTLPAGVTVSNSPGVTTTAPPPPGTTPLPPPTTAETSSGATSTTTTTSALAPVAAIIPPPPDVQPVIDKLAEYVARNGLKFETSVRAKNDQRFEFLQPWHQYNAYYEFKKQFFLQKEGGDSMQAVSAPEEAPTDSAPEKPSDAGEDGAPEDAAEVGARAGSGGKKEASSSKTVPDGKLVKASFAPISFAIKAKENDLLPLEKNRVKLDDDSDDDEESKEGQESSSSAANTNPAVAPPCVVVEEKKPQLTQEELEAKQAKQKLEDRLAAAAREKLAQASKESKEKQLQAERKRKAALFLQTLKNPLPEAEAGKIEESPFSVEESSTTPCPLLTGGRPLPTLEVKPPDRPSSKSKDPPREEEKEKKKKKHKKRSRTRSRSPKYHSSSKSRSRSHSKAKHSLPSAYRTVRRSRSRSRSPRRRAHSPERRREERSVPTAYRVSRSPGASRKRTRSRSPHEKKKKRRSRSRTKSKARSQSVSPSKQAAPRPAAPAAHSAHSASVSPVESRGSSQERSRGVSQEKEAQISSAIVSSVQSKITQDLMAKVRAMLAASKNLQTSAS

Assays:
Test in all cases: log2 fold change, soluble protein after heating vs DMSO (PISA); higher = thermal stabilisation; K562 cells, 10 uM, 30 min; active = over 0.2 and 3.5 SD of the protein, either way, in both replicates (recomputed)
saracatinib = compound: CN1CCN(CCOc2cc(OC3CCOCC3)c3c(Nc4c(Cl)ccc5c4OCO5)ncnc3c2)CC1 [saracatinib]
In short: (§1)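 K562 cells at 2×10^6 cells/mL were given 10 μM compound for 30 min. Aliquots then went through 3 min of heating across 48°C-58°C, were pooled, and were extracted in PBS with 0.5% NP-40 at 4°C, and the supernatant after 21,000xg for 90 min was quantified by TMTpro 16plex LC-MS/MS with channel sums equalised. Thermal stability relative to control samples, from duplicates, is given as log2 fold change.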

sotrastaurin = compound: CN1CCN(c2nc(C3=C(c4c[nH]c5ccccc45)C(=O)NC3=O)c3ccccc3n2)CC1 [sotrastaurin]
In short: as §1

alvocidib = compound: CN1CC[C@H](c2c(O)cc(O)c3c(=O)cc(-c4ccccc4Cl)oc23)[C@H](O)C1 [alvocidib]
In short: as §1

Tubastatin A = compound: CN1CCc2c(c3ccccc3n2Cc2ccc(C(=O)NO)cc2)C1 [Tubastatin A]
In short: as §1

[1] = compound: CNC(=O)C1=CC=CC=C1NC2=NC(=NC=C2Cl)NC3=C(C=C(C=C3)N4CCOCC4)OC
In short: as §1

defactinib = compound: CNC(=O)c1ccc(Nc2ncc(C(F)(F)F)c(NCc3nccnc3N(C)S(C)(=O)=O)n2)cc1 [defactinib]
In short: as §1

rucaparib = compound: CNCc1ccc(-c2[nH]c3cc(F)cc4c3c2CCNC4=O)cc1 [rucaparib]
In short: as §1

[2] = compound: CNc1nc(-c2ccc3c(N)n[nH]c3c2)cc(N2C[C@@H](C(=O)NC3CCCCC3)CC[C@H]2C)n1
In short: as §1

encorafenib = compound: COC(=O)N[C@@H](C)CNc1nccc(-c2cn(C(C)C)nc2-c2cc(Cl)cc(NS(C)(=O)=O)c2F)n1 [encorafenib]
In short: as §1

[3] = compound: COC(=O)[C@H](CCSC)NC(=O)C1=C(C=C(C=C1)NC[C@H](CS)N)C2=CC=CC=C2
In short: as §1

[4] = compound: COC1=CC=C(C=C1)CN2C=CC3=C2C=C(C=C3)C(=O)NO
In short: as §1

filanesib = compound: CON(C)C(=O)N1N=C(c2cc(F)ccc2F)S[C@@]1(CCCN)c1ccccc1 [filanesib]
In short: as §1

zotarolimus = compound: CO[C@H]1C[C@@H]2CC[C@@H](C)[C@@](O)(O2)C(=O)C(=O)N2CCCC[C@H]2C(=O)O[C@H]([C@H](C)C[C@@H]2CC[C@H](n3cnnn3)[C@H](OC)C2)CC(=O)[C@H](C)/C=C(\C)[C@@H](O)[C@@H](OC)C(=O)[C@H](C)C[C@H](C)/C=C/C=C/C=C/1C [zotarolimus]
In short: as §1

idasanutlin = compound: COc1cc(C(=O)O)ccc1NC(=O)[C@@H]1N[C@@H](CC(C)(C)C)[C@](C#N)(c2ccc(Cl)cc2F)[C@H]1c1cccc(Cl)c1F [idasanutlin]
In short: as §1

alisertib = compound: COc1cc(Nc2ncc3c(n2)-c2ccc(Cl)cc2C(c2c(F)cccc2OC)=NC3)ccc1C(=O)O [alisertib]
In short: as §1

[5] = compound: COc1cc2nc(-c3cc(F)ccc3O)nc(N[C@@H]3CNC[C@H]3C(C)(C)O)c2cc1OC
In short: as §1

gefitinib = compound: COc1cc2ncnc(Nc3ccc(F)c(Cl)c3)c2cc1OCCCN1CCOCC1 [gefitinib]
In short: as §1

[6] = compound: COc1cccc2cc(-c3nc([C@H]4CC[C@H](C(=O)O)CC4)n4ncnc(N)c34)[nH]c12
In short: as §1

lapatinib = compound: CS(=O)(=O)CCNCc1ccc(-c2ccc3ncnc(Nc4ccc(OCc5cccc(F)c5)c(Cl)c4)c3c2)o1 [lapatinib]
In short: as §1

pictilisib = compound: CS(=O)(=O)N1CCN(Cc2cc3nc(-c4cccc5[nH]ncc45)nc(N4CCOCC4)c3s2)CC1 [pictilisib]
In short: as §1

Measured: log2 fold change

SF3B3 (UniProt Q15393)
inactive: saracatinib 0.009 | sotrastaurin 0.009 | alvocidib 0.008 | Tubastatin A -0.005 | [1] 0.017 | defactinib 0.058 | rucaparib 0.011 | [2] -0.007 | encorafenib 0.016 | [3] -0.045 | [4] -0.016 | filanesib 0.021 | zotarolimus 0.056 | idasanutlin -0.041 | alisertib -0.059 | [5] 0.029 | gefitinib -0.028 | [6] 0.014 | lapatinib 0.006 | pictilisib 0.046

SKP1 (UniProt P63208)
inactive: saracatinib 0.157 | sotrastaurin -0.023 | Tubastatin A 0.002 | [1] 0.165 | defactinib 0.066 | rucaparib -0.051 | [2] 0.028 | encorafenib -0.005 | [3] 0.072 | [4] 0.209 | filanesib -0.095 | zotarolimus 0.09 | idasanutlin 0.027 | alisertib -0.005 | [5] -0.099 | gefitinib 0.001 | [6] -0.008 | lapatinib 0.01 | pictilisib -0.121

SERF2 (UniProt P84101)
inactive: saracatinib 0.142 | sotrastaurin 0.033 | alvocidib 0.152 | Tubastatin A 0.066 | [1] -0.053 | defactinib 0.004 | rucaparib -0.027 | [2] 0.029 | encorafenib -0.042 | [3] 0.073 | filanesib 0.038 | zotarolimus 0.035 | alisertib -0.031 | gefitinib 0.012 | [6] 0.016 | pictilisib 0.128

SEPTIN10 isoform 2 (UniProt Q9P0V9)
inactive: saracatinib 0.059 | sotrastaurin -0.01 | alvocidib 0.102 | Tubastatin A -0.1 | [1] -0.032 | defactinib -0.048 | rucaparib -0.06 | [2] 0.02 | encorafenib -0.069 | [3] 0.046 | filanesib -0.023 | zotarolimus -0.064 | idasanutlin 0.037 | alisertib -0.087 | [5] 0.012 | gefitinib -0.039 | [6] 0.045 | lapatinib -0.042 | pictilisib 0.034

SERPINB9 (UniProt P50453)
inactive: saracatinib 0.044 | sotrastaurin 0.002 | alvocidib -0.039 | Tubastatin A -0.012 | [1] -0.06 | defactinib -0.026 | rucaparib 0.007 | [2] -0.005 | encorafenib -0.013 | [3] 0.008 | [4] 0.028 | filanesib -0.079 | zotarolimus 0.009 | idasanutlin -0.022 | alisertib -0.076 | [5] -0.024 | gefitinib -0.017 | [6] 0.037 | lapatinib 0.007 | pictilisib 0

SHB (UniProt Q15464)
inactive: saracatinib -0.072 | sotrastaurin -0.072 | alvocidib -0.024 | Tubastatin A -0.013 | [2] -0.012 | filanesib -0.012 | zotarolimus 0.171 | idasanutlin -0.083 | alisertib 0.063 | [5] 0.031 | [6] 0.042 | lapatinib -0.009 | pictilisib -0.275

SERPINB6, A0A087X1N8
inactive: saracatinib 0.073 | sotrastaurin -0.012 | alvocidib -0.01 | Tubastatin A -0.055 | [1] 0.023 | defactinib 0 | rucaparib -0.026 | [2] 0.007 | encorafenib -0.015 | [3] 0.053 | [4] 0.099 | filanesib -0.051 | zotarolimus -0.006 | idasanutlin -0.032 | alisertib -0.078 | [5] -0.047 | gefitinib -0.002 | [6] 0.062 | lapatinib -0.006 | pictilisib -0.037

SIAH1 isoform 2 (UniProt Q8IUQ4)
inactive: saracatinib 0.118 | sotrastaurin 0.018 | alvocidib -0.046 | Tubastatin A 0.152 | [1] -0.033 | defactinib -0.085 | rucaparib -0.09 | [2] -0.118 | encorafenib -0.045 | [3] -0.103 | [4] 0.152 | filanesib -0.049 | zotarolimus 0.057 | idasanutlin -0.067 | [5] -0.058 | lapatinib 0.018 | pictilisib 0.081

SFSWAP isoform 2 (UniProt Q12872)
inactive: saracatinib -0.024 | sotrastaurin -0.13 | alvocidib -0.126 | Tubastatin A 0.017 | [1] -0.114 | defactinib -0.085 | rucaparib 0.036 | [2] -0.051 | encorafenib 0.162 | [3] 0.044 | [4] -0.004 | filanesib 0.139 | zotarolimus 0.158 | idasanutlin 0.106 | alisertib -0.139 | [5] -0.099 | gefitinib 0.057 | [6] -0.121 | lapatinib 0.134 | pictilisib 0.009
